Assay results reported in patent publication US10444244B2, “Microfluidic array supporting a lipid bilayer assembly” (DUBLIN CITY UNIVERSITY, priority 2014, dated 2019).
Where two headings read alike, the source gives them in different places. At least one compound was matched to its structure with a doubt left.

Columns and labels:
[1] = FLCS/FCS of labelled lipid diffusion in DOPC bilayer over buffer-filled PDMS cavity array after drug addition; type: physicochemical
Protocol: The lower dye concentration is required for FLCS experiments.
FLCS measurements were recorded over cavities as well as flat PDMS surfaces to obtain the autocorrelation functions for each surface. […] The autocorrelation curves obtained were fit to the 2-dimensional model described in equation 1 to obtain the lateral diffusion co-efficient of the lipids in the bilayer.
where, G(τ) is the autocorrelation function, N is the average number of fluorescent molecules present in the confocal volume, τi is the characteristic residence time, and α is the anomalous parameter which reflects the extent of deviation of diffusion from normal or Brownian motion where α=1, i is the index of the components. The lateral diffusion coefficient, DL, can be obtained as DL=ω^2/4τi. In this equation, ω is the radius of the laser beam used. To determine ω for each excitation, a reference solution of free dye was used for which the diffusion coefficient is known.
The probe is BODIPY labelled DOPE at 1% mol/mol lipid.
Monitoring the diffusion of each probe permitted assessment of interaction of the drug with the membrane and where this interactions occurred; i.e. did it bind to the interface or intercalate in the bilayer? […]

Structure (SMILES): CO[C@H]1/C=C/O[C@@]2(C)Oc3c(C)c(O)c4c(O)c(c(/C=N/N5CCN(C)CC5)c(O)c4c3C2=O)NC(=O)/C(C)=C\C=C\[C@H](C)[C@H](O)[C@@H](C)[C@@H](O)[C@@H](C)[C@H](OC(C)=O)[C@@H]1C [Rifampicin]
- diffusion coefficient of the DOPE-Atto655 labelled DOPC layer in presence of drug [1]: dramatically increased
- drug concentration at which EIS response became irreversible on washing: > 60 µmol
- reversibility of partitioning (recovery of impedance after washing the film): largely irreversible
- time for drug to equilibrate with the bilayer (10 μM, in contact with DOPC bilayer, FIG. 16 (in the dark), response then stable): less than 30 minutes
- change of film resistance from the EIS signal (concentration range 0 to 100 umol, gold cavity supported DOPC bilayer, PBS): very large decreases in film resistance
- time to partition into the layer (dynamic EIS study): approximately 30 minutes
- partitioning into / crossing of the bilayer (lipid bilayer across buffer filled cavity arrays): partitions into and crosses over the bilayer
- reversibility of partitioning (recovery of impedance after washing the film) (listed as rifampicin): essentially irreversible
